# Measured values published in PMC8134555.
# Amino acid sequences for entries named in this document (tags omitted).
# UniProt P09874: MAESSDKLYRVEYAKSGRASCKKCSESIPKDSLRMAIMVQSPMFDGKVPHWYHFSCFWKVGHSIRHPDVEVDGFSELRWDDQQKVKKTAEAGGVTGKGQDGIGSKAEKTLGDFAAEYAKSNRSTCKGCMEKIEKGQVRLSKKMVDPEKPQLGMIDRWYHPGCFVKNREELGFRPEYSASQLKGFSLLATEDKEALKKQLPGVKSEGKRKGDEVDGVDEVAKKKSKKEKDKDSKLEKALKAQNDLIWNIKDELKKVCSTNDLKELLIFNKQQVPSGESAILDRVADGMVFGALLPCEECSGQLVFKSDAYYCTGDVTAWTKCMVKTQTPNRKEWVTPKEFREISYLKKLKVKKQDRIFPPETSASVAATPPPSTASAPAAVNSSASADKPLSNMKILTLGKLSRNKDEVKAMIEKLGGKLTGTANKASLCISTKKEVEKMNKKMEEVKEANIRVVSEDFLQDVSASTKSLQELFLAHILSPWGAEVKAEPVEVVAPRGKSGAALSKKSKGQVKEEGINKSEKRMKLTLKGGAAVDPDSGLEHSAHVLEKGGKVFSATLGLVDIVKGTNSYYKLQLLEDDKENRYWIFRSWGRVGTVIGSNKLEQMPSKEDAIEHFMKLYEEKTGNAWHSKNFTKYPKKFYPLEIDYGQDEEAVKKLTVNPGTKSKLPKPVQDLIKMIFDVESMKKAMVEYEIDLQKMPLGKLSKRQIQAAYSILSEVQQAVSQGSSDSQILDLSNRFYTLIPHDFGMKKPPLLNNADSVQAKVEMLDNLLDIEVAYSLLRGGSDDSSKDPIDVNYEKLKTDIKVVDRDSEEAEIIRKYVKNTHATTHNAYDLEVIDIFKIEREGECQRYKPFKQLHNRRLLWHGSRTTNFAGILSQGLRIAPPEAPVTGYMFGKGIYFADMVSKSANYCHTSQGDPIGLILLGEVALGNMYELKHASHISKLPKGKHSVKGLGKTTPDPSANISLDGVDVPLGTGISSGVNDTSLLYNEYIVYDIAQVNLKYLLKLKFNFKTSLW
# UniProt P39748: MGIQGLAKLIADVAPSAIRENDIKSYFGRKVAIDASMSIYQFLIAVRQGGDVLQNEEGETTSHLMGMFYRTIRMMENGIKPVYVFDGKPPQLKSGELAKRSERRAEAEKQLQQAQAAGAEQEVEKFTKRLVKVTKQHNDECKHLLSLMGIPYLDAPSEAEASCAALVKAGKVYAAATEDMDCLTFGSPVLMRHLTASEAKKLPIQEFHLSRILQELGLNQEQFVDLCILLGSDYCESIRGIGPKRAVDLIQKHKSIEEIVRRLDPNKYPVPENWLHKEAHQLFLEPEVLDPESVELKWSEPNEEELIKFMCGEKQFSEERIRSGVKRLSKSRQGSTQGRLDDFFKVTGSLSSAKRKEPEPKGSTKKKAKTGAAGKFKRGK
# UniProt P27694: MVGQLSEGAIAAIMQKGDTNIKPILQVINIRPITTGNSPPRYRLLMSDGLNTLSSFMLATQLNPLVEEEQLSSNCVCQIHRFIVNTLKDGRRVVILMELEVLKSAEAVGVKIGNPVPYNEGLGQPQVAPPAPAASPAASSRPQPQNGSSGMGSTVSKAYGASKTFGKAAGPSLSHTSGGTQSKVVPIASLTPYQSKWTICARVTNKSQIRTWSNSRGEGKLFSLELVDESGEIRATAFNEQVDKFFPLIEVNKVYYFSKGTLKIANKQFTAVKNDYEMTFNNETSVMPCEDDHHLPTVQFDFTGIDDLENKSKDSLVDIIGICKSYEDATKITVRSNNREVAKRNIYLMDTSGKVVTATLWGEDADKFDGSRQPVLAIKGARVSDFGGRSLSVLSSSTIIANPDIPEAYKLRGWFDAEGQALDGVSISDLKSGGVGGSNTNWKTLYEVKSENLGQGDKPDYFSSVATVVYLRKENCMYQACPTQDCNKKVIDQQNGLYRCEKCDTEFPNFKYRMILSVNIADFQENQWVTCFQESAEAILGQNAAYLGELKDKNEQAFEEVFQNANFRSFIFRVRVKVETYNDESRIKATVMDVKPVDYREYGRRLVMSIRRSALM
# UniProt P28340: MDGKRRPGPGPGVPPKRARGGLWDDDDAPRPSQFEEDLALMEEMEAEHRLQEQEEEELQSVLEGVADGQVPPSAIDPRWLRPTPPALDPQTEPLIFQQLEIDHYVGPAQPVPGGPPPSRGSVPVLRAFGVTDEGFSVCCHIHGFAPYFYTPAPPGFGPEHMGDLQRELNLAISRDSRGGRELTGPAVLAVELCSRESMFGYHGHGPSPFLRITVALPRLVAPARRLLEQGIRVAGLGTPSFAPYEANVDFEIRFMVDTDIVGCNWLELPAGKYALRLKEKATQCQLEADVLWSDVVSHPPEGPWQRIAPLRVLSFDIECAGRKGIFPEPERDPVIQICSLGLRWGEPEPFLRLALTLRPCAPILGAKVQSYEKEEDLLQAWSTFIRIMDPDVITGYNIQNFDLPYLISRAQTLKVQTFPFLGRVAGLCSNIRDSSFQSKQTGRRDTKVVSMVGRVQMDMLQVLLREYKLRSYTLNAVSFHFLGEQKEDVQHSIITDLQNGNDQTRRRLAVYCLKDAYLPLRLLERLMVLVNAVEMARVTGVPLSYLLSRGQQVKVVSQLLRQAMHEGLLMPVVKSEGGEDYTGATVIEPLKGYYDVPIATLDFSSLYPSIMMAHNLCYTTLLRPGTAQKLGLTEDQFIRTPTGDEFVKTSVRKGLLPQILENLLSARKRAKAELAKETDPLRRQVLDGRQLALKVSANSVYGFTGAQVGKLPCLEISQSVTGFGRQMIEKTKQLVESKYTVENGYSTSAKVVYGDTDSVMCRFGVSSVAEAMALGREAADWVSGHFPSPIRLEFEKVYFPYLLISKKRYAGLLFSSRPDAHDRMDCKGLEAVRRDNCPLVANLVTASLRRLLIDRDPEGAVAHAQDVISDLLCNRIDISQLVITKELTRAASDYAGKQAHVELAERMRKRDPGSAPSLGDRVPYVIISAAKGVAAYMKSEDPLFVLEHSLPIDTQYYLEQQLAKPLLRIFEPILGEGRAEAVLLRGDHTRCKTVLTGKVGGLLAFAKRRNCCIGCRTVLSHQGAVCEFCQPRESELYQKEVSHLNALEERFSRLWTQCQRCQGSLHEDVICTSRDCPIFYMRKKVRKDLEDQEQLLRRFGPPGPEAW
# UniProt P13010: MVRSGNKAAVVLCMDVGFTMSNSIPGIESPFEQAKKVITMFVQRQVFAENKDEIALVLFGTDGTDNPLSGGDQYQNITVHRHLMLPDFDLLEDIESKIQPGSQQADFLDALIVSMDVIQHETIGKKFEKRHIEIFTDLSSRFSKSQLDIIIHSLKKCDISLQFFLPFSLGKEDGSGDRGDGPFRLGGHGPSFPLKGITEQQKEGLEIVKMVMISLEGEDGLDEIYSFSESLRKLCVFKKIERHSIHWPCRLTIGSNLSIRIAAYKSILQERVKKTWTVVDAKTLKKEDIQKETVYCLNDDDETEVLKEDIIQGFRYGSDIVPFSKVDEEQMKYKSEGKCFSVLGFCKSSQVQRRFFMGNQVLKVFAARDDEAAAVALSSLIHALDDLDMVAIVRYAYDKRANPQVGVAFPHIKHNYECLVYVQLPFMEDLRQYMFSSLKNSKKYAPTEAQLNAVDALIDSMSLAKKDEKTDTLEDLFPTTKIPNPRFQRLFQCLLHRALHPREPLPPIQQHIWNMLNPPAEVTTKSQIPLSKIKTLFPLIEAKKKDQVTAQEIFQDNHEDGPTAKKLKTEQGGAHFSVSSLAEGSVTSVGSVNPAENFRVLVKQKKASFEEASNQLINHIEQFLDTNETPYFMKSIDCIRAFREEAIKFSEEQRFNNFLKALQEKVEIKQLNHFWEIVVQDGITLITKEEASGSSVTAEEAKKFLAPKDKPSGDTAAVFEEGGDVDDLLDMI
# UniProt P12956: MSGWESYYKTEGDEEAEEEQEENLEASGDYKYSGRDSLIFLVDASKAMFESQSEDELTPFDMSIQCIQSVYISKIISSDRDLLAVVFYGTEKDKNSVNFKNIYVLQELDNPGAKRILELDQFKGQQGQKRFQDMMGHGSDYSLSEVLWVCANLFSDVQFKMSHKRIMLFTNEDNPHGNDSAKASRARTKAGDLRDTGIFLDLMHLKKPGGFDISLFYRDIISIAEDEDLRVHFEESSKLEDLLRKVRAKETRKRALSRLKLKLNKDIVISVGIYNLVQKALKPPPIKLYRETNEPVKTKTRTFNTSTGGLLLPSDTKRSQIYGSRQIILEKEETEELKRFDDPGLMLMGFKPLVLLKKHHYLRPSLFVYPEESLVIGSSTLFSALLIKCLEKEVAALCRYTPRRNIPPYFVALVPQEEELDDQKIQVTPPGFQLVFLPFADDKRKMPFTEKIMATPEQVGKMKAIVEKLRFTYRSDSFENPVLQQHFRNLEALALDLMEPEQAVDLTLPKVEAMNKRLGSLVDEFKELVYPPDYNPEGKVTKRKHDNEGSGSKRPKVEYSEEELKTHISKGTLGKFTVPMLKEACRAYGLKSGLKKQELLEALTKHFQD
# These are yes or no findings as the source states them, for the method shown. Binding seen in cells or lysates may run through a third protein. Here binding means that the protein was enriched with, or labelled near, the bait; the list need not be complete.
# Target: T1, macrophage migration inhibitory factor (MIF), endogenous (human (endogenous in MDA-MB-231 and HeLa)) (UniProt P14174)
# T1 sequence: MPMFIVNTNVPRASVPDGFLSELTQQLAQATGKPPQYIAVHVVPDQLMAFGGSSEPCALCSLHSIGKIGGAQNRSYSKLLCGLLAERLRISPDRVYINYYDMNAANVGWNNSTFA
# Assay: affinity purification with mass spectrometry; immunoprecipitation of endogenous MIF from HeLa cells, DMSO or 4 h after MNNG (50 uM, 15 min); MIF KO cells as negative control; hits found under both conditions
row,binding,Substance
1,binds,"poly(ADP-ribose) polymerase 1 (PARP1), endogenous (from UniProt P09874 1-1014)"
2,binds,"Flap endonuclease 1 (FEN1), endogenous (from UniProt P39748 1-380)"
3,binds,"RPA1, endogenous (from UniProt P27694 1-616)"
4,binds,"POLD1, endogenous (from UniProt P28340 1-1107)"
5,binds,"XRCC5, endogenous (from UniProt P13010 1-732)"
6,binds,"XRCC6, endogenous (from UniProt P12956 1-609)"
